# In US20220025060A1:
# Protein sequences, listed by entry. Tags and fused reporters are not part of them. Residues count along the entry.
# UniProt P25942, residues 21-193: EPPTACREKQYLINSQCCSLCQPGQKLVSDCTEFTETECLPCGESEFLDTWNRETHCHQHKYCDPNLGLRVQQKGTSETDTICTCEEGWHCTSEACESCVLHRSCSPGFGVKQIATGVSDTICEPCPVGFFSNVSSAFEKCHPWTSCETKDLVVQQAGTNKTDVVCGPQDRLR
# No constants are given. Whether binding was seen depends on the method and setting. Some results given as binding are weak or reduced against the parent protein; the word gives no strength.
# Molecular target: His-tagged human CD40 (h-CD40-his) recombinant protein (human) (UniProt P25942)
# Assay: ELISA
row,Binder,binding
1,"humanized antibody hu2H6 (H1b heavy chain, L1c light chain) (antibody, human IgG1, kappa, V domains shown) VH: QVQLVQSGAEVKKPGSSVKVSCKASGYAFSDYLIEWVRQAPGQGLEWMGVINPGSGGSNYNEKIKDRVTLTADKSTSTAYMELSSLRSEDTAVYYCARGGGGFTYWGQGTLVTVSS VL: DIQLTQSPSSLSASVGDRVTITCRASQDISNYLNWYQQKPGKTIKLLLNFASRLHSGVPSRFSGSGSGTDFTFTISSLQPEDIATYYCQQGSTLPWTFGGGTKVEIKR",binds
2,"humanized antibody hu9E5 (H1c heavy chain, L1a light chain) (antibody, human IgG1, kappa, V domains shown) VH: QVQLVQSGAEVKKPGASVKVSCKASGYILTTYWITWVRQAPGQGLEWMGDIHPGSGSTKYNEKFKSRVTLTVDTSISTAYMELSRLRSEDTAVYYCARRDYWGQGTTVTVSS VL: DIVMTQSPLSLPVTPGEPASISCRSSQNIVNSQGNTYLEWYLQKPGQSPQLLIYKVTNRFSGVPDRFSGSGSGTDFTLKISRVEAEDVGVYYCFQASLVPWTFGGGTKVEIKR",binds
